Measurements from patent US6075120A (priority 1995, dated 2000).
Part of at least one peptide drawing is inferred or uncertain, most often the ends. Square brackets hold non-standard residues; d marks the D form. Peptide text beside a SMILES is read from it. * marks the point of attachment. X1 = CN1CC[C@]23c4c5ccc(O)c4O[C@H]2C(NCCSC2CC(=O)N(CCCCCCN4C(=O)CC(*)C4=O)C2=O)CC[C@@]3(O)[C@H]1C5; X7 = COc1ccc2c(c1)c(CC(=O)OCCCCCCN1C(=O)CC(*)C1=O)c(C)n2C(=O)c1ccc(Cl)cc1; Hyp = O=C(O)[C@@H]1C[C@@H](O)CN1

How the values were obtained:
[1] = target: T1, BK2 -receptor (Rattus norvegicus, UniProt P25023); assay: rat uterus assay of bradykinin antagonist (BKAn) activity; type: cell-based; details: bradykinin induced uterine contraction
T1 construct: BKAn activity (pA2) was assessed using the rat uterus preparation; from tissue; host or cells: rat uterus
T1 sequence (P25023 1-396): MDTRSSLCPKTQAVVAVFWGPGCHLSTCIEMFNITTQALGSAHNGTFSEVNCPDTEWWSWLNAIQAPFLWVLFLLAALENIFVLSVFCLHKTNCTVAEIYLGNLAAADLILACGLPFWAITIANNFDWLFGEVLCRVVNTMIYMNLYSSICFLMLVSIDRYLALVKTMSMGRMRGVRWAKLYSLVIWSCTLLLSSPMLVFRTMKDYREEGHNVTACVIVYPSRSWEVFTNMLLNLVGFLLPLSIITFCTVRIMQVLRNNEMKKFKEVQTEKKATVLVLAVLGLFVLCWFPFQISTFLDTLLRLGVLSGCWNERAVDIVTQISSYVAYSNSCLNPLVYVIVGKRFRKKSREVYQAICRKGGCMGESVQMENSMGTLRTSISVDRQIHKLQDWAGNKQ

[2] = system: cyclooxygenase; assay: rat lung parenchymal strips challenged with arachidonic acid; type: cell-based; details: contraction in response to exogenously applied arachidonic acid
Description: As mentioned previously, for the COI to work it may need to be dissociated from the BKAn so as to allow for its intracellular penetration. Therefore, in order to evaluate the functional activity of a BKAn/COI heterodimer, CP-0460 was exposed to rat lung parenchymal strips which were then challenged with arachidonic acid. This tissue is known to contain both non-specific esterase activity as well as to convert arachidonic acid to thromboxane (via a cyclooxygenase dependent pathway) which is then ultimately responsible for the smooth muscle contraction observed in this assay.

[3] = system: mice injected in the hind limb foot pad with formalin; assay: mouse formalin test (inflammatory and neurogenic pain, hind limb licking); type: in vivo; details: 50 ul formalin in hind limb foot pad
Method: In order to test the activity of these compounds in vivo, a model of inflammatory and neurogenic pain was used. This model measures the behavioral responses of mice injected in the hind limb foot pad with 50 ul of formalin. Control mice (open circles) show a characteristic bi-phasic response to the injected formalin wherein there is a short lasting initial response followed by a quiescent period which is then followed by a sustained period of hind limb licking. The licking behavior is interpreted to mean that the limb is irritated and painful. The greater the time spent licking, the more painful the stimulus.

Row | SMILES | type of bradykinin antagonism [1] | log dose ratio shift [2] | dose at which both phases of the pain response are blocked [3] | effect on licking behavior in both phases of the formalin test [3]
1 | COc1ccc2c(c1)c(CC(=O)OCCCCCCN1C(=O)CC(SC[C@H](NC(=O)[C@H](Cc3ccccc3)NC(=O)CNC(=O)[C@@H]3C[C@@H](O)CN3C(=O)[C@@H]3CCCN3C(=O)[C@H](CCCNC(=N)N)NC(=O)[C@H](N)CCCNC(=N)N)C(=O)N[C@H](Cc3ccccc3)C(=O)N[C@@H](CC(C)C)C(=O)N[C@@H](CCCNC(=N)N)C(=O)O)C1=O)c(C)n2C(=O)c1ccc(Cl)cc1 (stereo partly shown) [CP-0460] (H-[dR]RP[Hyp]GFC(X7)[dF]LR-OH) | "pseudo-non-competitive" antagonist | 1.029±0.042 |  | 
2 | CC(C)C[C@H](NC(=O)[C@@H](Cc1ccccc1)NC(=O)[C@H](CSC1CC(=O)N(CCCCCCN2C(=O)CC(SCCNC3CC[C@@]4(O)[C@H]5Cc6ccc(O)c7c6[C@@]4(CCN5C)[C@H]3O7)C2=O)C1=O)NC(=O)[C@H](Cc1ccccc1)NC(=O)CNC(=O)[C@@H]1C[C@@H](O)CN1C(=O)[C@@H]1CCCN1C(=O)[C@H](CCCNC(=N)N)NC(=O)[C@H](N)CCCNC(=N)N)C(=O)N[C@@H](CCCNC(=N)N)C(=O)O (stereo partly shown) [CP-0494] (H-[dR]RP[Hyp]GFC(X1)[dF]LR-OH) |  |  | 0.1 µmol/kg | blocks both phases of the pain response
